Drawing on PMC7575565, this text covers binding for two molecules.

Protein sequences, listed by entry. Tags and fused reporters are not part of them.
UniProt P08134: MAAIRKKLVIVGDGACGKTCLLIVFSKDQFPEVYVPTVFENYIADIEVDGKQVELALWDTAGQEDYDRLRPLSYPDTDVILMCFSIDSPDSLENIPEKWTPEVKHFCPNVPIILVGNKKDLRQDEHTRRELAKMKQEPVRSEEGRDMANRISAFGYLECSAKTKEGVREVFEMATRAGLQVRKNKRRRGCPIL

The target of one experiment is T1, RNF180-FLAG (UniProt Q86T96).
T1 sequence: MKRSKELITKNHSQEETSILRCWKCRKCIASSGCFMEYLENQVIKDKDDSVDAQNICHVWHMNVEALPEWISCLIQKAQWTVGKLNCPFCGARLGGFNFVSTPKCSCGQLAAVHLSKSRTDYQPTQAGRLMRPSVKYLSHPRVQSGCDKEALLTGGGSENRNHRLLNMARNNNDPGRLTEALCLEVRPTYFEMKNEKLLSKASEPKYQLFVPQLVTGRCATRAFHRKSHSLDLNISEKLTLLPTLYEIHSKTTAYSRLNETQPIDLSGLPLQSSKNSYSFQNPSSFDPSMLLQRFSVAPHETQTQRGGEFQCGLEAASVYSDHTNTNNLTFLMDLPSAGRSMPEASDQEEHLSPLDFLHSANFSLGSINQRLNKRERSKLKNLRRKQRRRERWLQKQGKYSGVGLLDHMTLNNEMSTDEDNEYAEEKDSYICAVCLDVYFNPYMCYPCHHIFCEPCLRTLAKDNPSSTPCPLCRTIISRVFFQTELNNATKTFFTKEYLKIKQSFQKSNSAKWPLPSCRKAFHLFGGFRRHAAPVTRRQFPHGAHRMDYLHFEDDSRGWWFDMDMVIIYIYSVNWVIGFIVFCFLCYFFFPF
The experiment in a line: co-IP; HEK293T cells co-transfected with the plasmids, 5 uM MG132 for 6 h; lysates immunoprecipitated with FLAG M2 affinity gel, washed with lysis buffer, immunoblotting.

The next experiment has as its target RhoC-FLAG (UniProt P08134). The experiment is described as above.

Results are given in words; binding and its absence hold for the method and conditions named. In cells and extracts the contact can be indirect. Some results given as binding are weak or reduced against the parent protein; the word gives no strength. For some assays here: Sequences can lack the tags named with a protein.

As to RhoC (from UniProt P08134 1-193), the binding entry in the experiment with RNF180-FLAG is recorded as “binds”.

B1: RNF180 (protein, UniProt Q86T96 1-592)
chain: MKRSKELITKNHSQEETSILRCWKCRKCIASSGCFMEYLENQVIKDKDDSVDAQNICHVWHMNVEALPEWISCLIQKAQWTVGKLNCPFCGARLGGFNFVSTPKCSCGQLAAVHLSKSRTDYQPTQAGRLMRPSVKYLSHPRVQSGCDKEALLTGGGSENRNHRLLNMARNNNDPGRLTEALCLEVRPTYFEMKNEKLLSKASEPKYQLFVPQLVTGRCATRAFHRKSHSLDLNISEKLTLLPTLYEIHSKTTAYSRLNETQPIDLSGLPLQSSKNSYSFQNPSSFDPSMLLQRFSVAPHETQTQRGGEFQCGLEAASVYSDHTNTNNLTFLMDLPSAGRSMPEASDQEEHLSPLDFLHSANFSLGSINQRLNKRERSKLKNLRRKQRRRERWLQKQGKYSGVGLLDHMTLNNEMSTDEDNEYAEEKDSYICAVCLDVYFNPYMCYPCHHIFCEPCLRTLAKDNPSSTPCPLCRTIISRVFFQTELNNATKTFFTKEYLKIKQSFQKSNSAKWPLPSCRKAFHLFGGFRRHAAPVTRRQFPHGAHRMDYLHFEDDSRGWWFDMDMVIIYIYSVNWVIGFIVFCFLCYFFFPF
In the case of B1, in the experiment with RhoC-FLAG, the binding entry is given as “binds”.
